The text below walks through data of paper PMC2964679, “Characterization of exceptionally thermostable single-stranded DNA-binding proteins from Thermotoga maritima and Thermotoga neapolitana” (BMC Microbiology, 2010).

The series deals with T1, TaqSSB (Thermus aquaticus YT1) (UniProt Q9KH06).
T1 sequence (looked up, limits assumed): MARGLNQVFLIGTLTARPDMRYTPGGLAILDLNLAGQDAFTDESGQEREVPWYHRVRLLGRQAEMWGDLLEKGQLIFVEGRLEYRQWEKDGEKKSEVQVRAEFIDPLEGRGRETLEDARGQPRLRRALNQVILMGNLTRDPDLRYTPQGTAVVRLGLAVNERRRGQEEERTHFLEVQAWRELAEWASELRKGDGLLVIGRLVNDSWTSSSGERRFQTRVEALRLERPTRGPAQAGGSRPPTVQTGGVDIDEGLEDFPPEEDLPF
The series can be described thus: EMSA (agarose). As to conditions: 100 mM NaCl, preincubation at 85-95°C, binding half-life 15 min at 85°C, 3 min at 90°C, 30 s at 95°C; 20 mM Tris-HCl pH 7.5, 1 mM EDTA, 2 or 100 mM NaCl, 25°C; EMSA 10 pmol oligo (1.5 pmol M13) with 10-200 pmol SSB in 10 µl, 2% agarose in TAE; recombinant protein; label: 5'-fluorescein (EMSA); single-stranded DNA.

For at least one entry, the source does not settle the construct or the ends of the probe. At least one verdict rests on a figure or table, not on a statement of the authors. Where a protein sequence is shown, tags need not be part of it.

With “TTTTTTTTTTTTTTTTTTTTTTTTTTTTTTTTTTT [(dT)35]”, the binding result is “binds”.
